Consider 15 compounds from PubChem BioAssay AID2685 (National Center for Advancing Translational Sciences (NCATS), 2010).

The term AC50 denotes the concentration at which the activity in the assay is half-maximal.

This experiment is described as follows: qHTS Assay for Lipid Storage Modulators in Drosophila S3 Cells.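 On cell number change: cells counted by Cell Tracker Red CMTPX staining in the red channel.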 As to conditions: BODIPY lipid droplet fluorescence, 18-24 h; for cell number change: measured here: cell count max response, cells fed with added oleic acid. Summed up:
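Drosophila S3 cells loaded with oleic acid (400 uM, as added) and compounds at several concentrations; lipid droplets imaged by 488-nm laser-scanning cytometry, 500–530 nm intensity and object ratio to cell channel. Percent activity normalized to 20 uM Triacsin C.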
In general terms: In qHTS, concentration-response curves come from the screen itself.

[1] abbreviates: measured here: lipid fluorescence (Fed channel) AC50, cells fed with added oleic acid.
Setting [2] is: measured here: cell number channel AC50, cells fed with added oleic acid.

This is one part of the list. These are further read-outs of the screen, such as a control signal, another cell line or another target. No call is given for them. Compounds called inactive in the main read-out are mostly missing here. Potencies come from curve fits of mixed quality, noted in brackets.

In the case of `Cc1ccc(OCCCC(=O)Nc2ccc(N3CCOCC3)cc2)cc1`, the cell number change is -15.7%. In addition, the half-maximal activity concentration (AC50) under setting [1] was 0.00517 µM [rising, full curve, poor fit].

As to `Cc1ccc(S(=O)(=O)N2CCN(C(=O)CN3CCCCC3)C2C(C)C)cc1` (configuration not stated), the cell number change is -27.9%. Also, the half-maximal activity concentration (AC50) under setting [2] was 0.731 µM [falling, full curve]. Also, the AC50 under setting [1] is 3.26 µM [falling, full curve].

As to `CC(=O)c1ccc(NC(=O)c2cccc(NC(=O)c3ccccc3)c2)cc1`, the cell number change stood at 20.2%. Besides, the concentration at half-maximal activity (AC50) under setting [1] is 29.1 µM [falling, single point].

As to `CC(=O)c1ccc(S(=O)(=O)N(C)CC(=O)N2CCCCCC2)cc1`, the cell number change is -8.51%. Further, under setting [2], the concentration at half-maximal activity (AC50) is 3.66 µM [rising, single point].

With `Cc1cnc(CN(C)Cc2c(C(=O)N3CCc4ccccc4C3)nc3ccc(Cl)cn23)[nH]1`, the cell number change came to 17.4%.

`Cc1cccc(C(=O)N[C@H](C(=O)OCC(=O)NC2CCS(=O)(=O)C2)C(C)C)c1` (some centres not stated): the cell number change was -9.79%. Also, under setting [1], the half-maximal activity concentration (AC50) is 6.51 µM [falling, single point].

As to `Cc1ccc(S(=O)(=O)N2CCN(C(=O)COC(=O)CC(C)c3ccccc3)CC2)c(C)c1` (configuration not stated), the cell number change is 66.7%. Further, under setting [2], the AC50 is 25.9 µM [rising, single point].

Consider `C=CCNC(=O)C1CCCN(S(=O)(=O)c2ccc(-n3cnnn3)cc2)C1` (configuration not stated), for which the cell number change was -14.1%.

Take `Cc1[nH]c2ccccc2c1C1(O)C(=O)N(Cc2ccc3c(c2)OCO3)c2ccccc21` (configuration not stated): the cell number change is -43.4%. In addition, the AC50 under setting [2] was 29.1 µM [falling, single point]. Further, the concentration at half-maximal activity (AC50) under setting [1] is 16.4 µM [falling, single point].

In the case of `CCN(CC)S(=O)(=O)c1cccc(NC2=NCC(C)S2)c1` (configuration not stated), the cell number change was 21.5%. For the same compound, under setting [1], the AC50 is 29.1 µM [rising, single point].

Regarding `C/C(=N\NC(=O)c1ccc(NS(=O)(=O)c2cccs2)cc1)c1ccc(C(C)(C)C)cc1`, the cell number change was -18.9%. Also, the half-maximal activity concentration (AC50) under setting [1] is 13 µM [falling, single point].

As for `O=C(/C=C/Nc1cccc(C(F)(F)F)c1)C(F)(F)F`, the cell number change was -15.5%. Also, the half-maximal activity concentration (AC50) under setting [1] was 6.51 µM [rising, partial curve, poor fit].

As to `COc1ccc(N2C(C(C)=O)=NN(c3ccccc3)C2c2cccs2)cc1` (configuration not stated), the cell number change is 34.5%. In addition, under setting [2], the concentration at half-maximal activity (AC50) is 7.31 µM [rising, full curve, poor fit]. In addition, the AC50 under setting [1] was 1.46 µM [rising, full curve].

For `O=C(Nc1ccc(Cl)c([N+](=O)[O-])c1)C(NCCCO)c1ccccc1` (configuration not stated), the cell number change is 32.8%. Moreover, under setting [2], the AC50 was 18.4 µM [rising, single point]. Further, the AC50 under setting [1] was 14.6 µM [rising, single point].

Turning to `O=C(CCNC(=O)c1ccc([N+](=O)[O-])cc1)Nc1ccc(Cl)c(S(=O)(=O)N2CCOCC2)c1`, the cell number change was 5.39%. The AC50 under setting [1] was 0.517 µM [rising, full curve].
